Structures can show the parent of a compound that is named as a salt. The list shows a part of the results. Hit calls seldom repeat between salt and free forms of one compound.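 Kinases, fused to nanoluciferase, were expressed in K562 cells; luminescence was measured every 4 h from 2 to 18 h as percent of control (DMSO = 100%, positive control = 0%). A time point is decreased if signal falls significantly (2 sigma). Hits were called by the authors by a rule that is not shown; the count of time points alone does not decide it.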
target: PIK4CA (UniProt P42356); assay: number of time points (of 5) at which kinase-Nluc abundance scored as decreased, DMSO-normalised (count); higher = more persistent destabilization; conditions: K562; 2-18 h

Sequences of proteins named here, by UniProt entry; tags and fusion partners are left off.
UniProt P42356, whole entry, looked up: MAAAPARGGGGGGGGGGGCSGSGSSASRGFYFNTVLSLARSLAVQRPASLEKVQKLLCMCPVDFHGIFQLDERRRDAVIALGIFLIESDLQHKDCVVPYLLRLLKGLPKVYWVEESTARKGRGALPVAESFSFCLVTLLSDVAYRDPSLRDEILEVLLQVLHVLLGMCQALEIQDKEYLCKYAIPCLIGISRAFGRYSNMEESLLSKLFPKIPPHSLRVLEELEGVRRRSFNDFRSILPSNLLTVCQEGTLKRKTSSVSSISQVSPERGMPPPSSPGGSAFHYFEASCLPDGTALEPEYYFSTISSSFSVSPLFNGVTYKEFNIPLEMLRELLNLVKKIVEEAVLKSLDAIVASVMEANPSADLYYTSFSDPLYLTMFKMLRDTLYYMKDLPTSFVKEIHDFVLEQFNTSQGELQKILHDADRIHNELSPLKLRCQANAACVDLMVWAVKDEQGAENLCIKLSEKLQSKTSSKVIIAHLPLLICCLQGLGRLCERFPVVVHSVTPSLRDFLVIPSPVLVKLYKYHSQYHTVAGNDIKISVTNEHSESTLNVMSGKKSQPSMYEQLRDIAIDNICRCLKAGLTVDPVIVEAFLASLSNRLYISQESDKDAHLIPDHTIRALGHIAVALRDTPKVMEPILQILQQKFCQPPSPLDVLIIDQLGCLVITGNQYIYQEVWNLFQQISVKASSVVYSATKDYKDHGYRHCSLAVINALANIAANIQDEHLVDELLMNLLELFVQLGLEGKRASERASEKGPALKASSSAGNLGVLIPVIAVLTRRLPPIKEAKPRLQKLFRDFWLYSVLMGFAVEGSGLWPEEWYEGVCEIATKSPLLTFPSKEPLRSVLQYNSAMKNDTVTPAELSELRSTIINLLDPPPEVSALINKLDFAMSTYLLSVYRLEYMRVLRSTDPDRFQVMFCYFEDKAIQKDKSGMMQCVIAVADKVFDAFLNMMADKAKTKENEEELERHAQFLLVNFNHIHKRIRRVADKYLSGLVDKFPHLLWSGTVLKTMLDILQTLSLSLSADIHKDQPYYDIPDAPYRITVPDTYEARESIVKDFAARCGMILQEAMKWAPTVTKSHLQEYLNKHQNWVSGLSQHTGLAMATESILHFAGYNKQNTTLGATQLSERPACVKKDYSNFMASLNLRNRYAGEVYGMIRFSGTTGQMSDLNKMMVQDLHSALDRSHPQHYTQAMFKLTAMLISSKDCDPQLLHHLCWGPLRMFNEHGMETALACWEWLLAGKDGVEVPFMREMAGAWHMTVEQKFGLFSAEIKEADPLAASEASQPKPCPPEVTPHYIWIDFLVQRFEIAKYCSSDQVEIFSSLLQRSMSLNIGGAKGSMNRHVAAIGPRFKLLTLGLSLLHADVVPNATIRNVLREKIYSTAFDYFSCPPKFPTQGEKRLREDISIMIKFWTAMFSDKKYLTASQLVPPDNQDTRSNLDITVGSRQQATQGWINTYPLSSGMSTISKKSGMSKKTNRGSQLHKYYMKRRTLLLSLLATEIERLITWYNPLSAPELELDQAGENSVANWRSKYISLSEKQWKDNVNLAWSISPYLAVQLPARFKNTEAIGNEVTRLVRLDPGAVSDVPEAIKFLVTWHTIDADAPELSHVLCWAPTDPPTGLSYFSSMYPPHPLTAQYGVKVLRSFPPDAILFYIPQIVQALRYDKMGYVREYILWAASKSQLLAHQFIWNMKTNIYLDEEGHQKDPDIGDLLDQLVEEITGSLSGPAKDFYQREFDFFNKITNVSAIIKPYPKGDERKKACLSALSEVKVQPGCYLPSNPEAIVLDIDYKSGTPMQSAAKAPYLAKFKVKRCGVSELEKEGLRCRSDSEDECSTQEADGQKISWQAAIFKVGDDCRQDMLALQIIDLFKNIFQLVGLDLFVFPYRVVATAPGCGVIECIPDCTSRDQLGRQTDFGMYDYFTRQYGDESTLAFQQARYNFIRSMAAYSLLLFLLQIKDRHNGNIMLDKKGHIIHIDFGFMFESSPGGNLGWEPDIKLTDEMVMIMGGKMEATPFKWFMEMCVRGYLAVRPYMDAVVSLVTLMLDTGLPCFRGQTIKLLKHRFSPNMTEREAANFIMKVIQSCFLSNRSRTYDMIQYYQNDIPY

**Q.** How did the “number of time points” value turn out when C[C@H](Nc1ncnc2[nH]cnc12)c1nc2ccc(F)cc2c(=O)n1-c1ccccc1 [Acalisib] (10 µM) was run?
**A.** 0

**Q.** How did the “number of time points” value turn out when O=C1c2ccccc2C(=O)c2c1cccc2-c1cnn(C2CCNCC2)c1 [PDK4-IN-1 (hydrochloride)] (10 µM) was run?
**A.** 0

**Q.** With Cc1ccccc1-n1c(Cn2ncc3c(N)ncnc32)nc2cccc(C)c2c1=O (10 µM) as the compound, how does the “number of time points” value read?
**A.** 0

**Q.** Which “number of time points” value does the source give for Nc1ncnc2c1ncn2[C@@H]1O[C@@H]2COP(O)(=S)O[C@H]2[C@H]1O (stereo partly specified) [Sp-cAMPS (sodium salt)] (10 µM) here?
**A.** 0

**Q.** CN(C)C(=O)c1ccc(Cn2c(C(=O)O)cc3c(Br)cc(Sc4ccc(Cl)c(Cl)c4)cc32)cc1 [Rheb inhibitor NR1] (10 µM) was tested. Which “number of time points” value did it give?
**A.** 0

**Q.** C/C=C(/C)C(=O)O[C@H]1[C@@H]2[C@H](C)C(=O)O[C@@H]2C[C@@H](C)[C@@H]2C=CC(=O)[C@]21C [Brevilin A] (2.5 µM) was tested. Which “number of time points” value did it give?
**A.** 0
